In patent US20240084042A1:
Results are given in words; binding and its absence hold for the method and conditions named. Some results given as binding are weak or reduced against the parent protein; the word gives no strength.

Amino acid sequences for entries named in this document (tags omitted). A change or cut given only in a name is not applied to a line headed by its entry.
UniProt P49862: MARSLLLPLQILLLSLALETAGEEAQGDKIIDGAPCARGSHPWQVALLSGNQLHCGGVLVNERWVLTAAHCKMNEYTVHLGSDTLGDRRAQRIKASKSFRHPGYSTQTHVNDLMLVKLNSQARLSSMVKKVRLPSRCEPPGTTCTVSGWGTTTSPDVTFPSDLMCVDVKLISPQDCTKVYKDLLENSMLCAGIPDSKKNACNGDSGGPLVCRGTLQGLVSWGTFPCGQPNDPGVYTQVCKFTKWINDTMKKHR

What was measured:
[1] = target: Recombinant KLK7 residues I30-R253 (SEQ ID NO: 4), crystallisation construct (human) (UniProt P49862); assay: complex formation, size-exclusion chromatography
[2] = target: Recombinant KLK7 residues I30-R253 (SEQ ID NO: 4), crystallisation construct (human) (UniProt P49862); assay: X-ray crystal structure

binding [1]: binds
binding [2]: binds
B1: anti-KLK7 rb.14H11c Fab (Fab, V domains shown)
VH: QSLEESGGDLVKPGASLTLTCTASGFSFSSSYYMSWVRQAPGKGLEWIASIYAGSSGAPYYAGWAKGRFTISKTSSTAVTLQMSSLTAADTATYFCAREGFAETGGYGYAAYFNLWGPGTLVTVSS
VL: AIEMTQSPPSLSASVGETVRIRCLASEDIANSVSWYQQKPGKPPTLLIYGASNLESGVPPRFTGSGSGTDYTLTIGGVQAEDAATYYCLGGYSYSSTGTAFGAGTKVEINR
